For experiment [1], the target named is HDAC4-FLAG (full-length) (human (by the printed RefSeq NM_006037)) (UniProt P56524). Briefly: pull-down; HDAC4-FLAG purified from 293 cells incubated with GFP, MEF2D-GFP or HDAC2-GFP purified from retrovirally transduced Ampho cells (Figure 6D); the text calls it Co-IP; both purified.
For experiment [2], the target named is endogenous GFP-tagged HDAC4 (PITCh knock-in) (human (endogenous in SK-LMS-1)) (UniProt P56524). Kind of experiment: co-IP; native lysates of SK-LMS-1 HDAC4-GFP knock-in cells, treated or not with etoposide (60 min) or APH (4 h), immunoprecipitated with 1 μg anti-HDAC4 antibody; hypotonic lysis buffer (Figure 6G).
The target in experiment [3] is HDAC4-FLAG deletion mutant, amino-terminal region (aa 1-289) (human (by the printed RefSeq NM_006037)) (UniProt P56524). Briefly: co-IP; 293 cells co-transfected with HDAC2-HA and full-length or deletion mutants of HDAC4-FLAG; immunoprecipitation with 1 μg anti-FLAG antibody (Figure 6E).
For experiment [4], the target named is GST-MEF2D (1-190) (UniProt Q14814). Kind of experiment: pull-down; 2 μg GST, GST-MEF2D (1-190) or GST-HDAC2 as baits on GST-Sepharose 4B beads; HDAC4 as prey from SK-LMS-1 lysate (hypertonic lysis buffer, 300 mM NaCl), cells treated or not for 60 min with etoposide; 4°C, 2 h (Figure 6F); only the target purified.
For experiment [5], the target named is GST-HDAC2 (SRP5266, Merck) (UniProt Q92769). The description is as above.

Protein sequences, listed by entry. Tags and fused reporters are not part of them. Lines headed by an entry give the natural chain unless they say otherwise; changes in a name come on top. Residues count along the entry.
UniProt P56524: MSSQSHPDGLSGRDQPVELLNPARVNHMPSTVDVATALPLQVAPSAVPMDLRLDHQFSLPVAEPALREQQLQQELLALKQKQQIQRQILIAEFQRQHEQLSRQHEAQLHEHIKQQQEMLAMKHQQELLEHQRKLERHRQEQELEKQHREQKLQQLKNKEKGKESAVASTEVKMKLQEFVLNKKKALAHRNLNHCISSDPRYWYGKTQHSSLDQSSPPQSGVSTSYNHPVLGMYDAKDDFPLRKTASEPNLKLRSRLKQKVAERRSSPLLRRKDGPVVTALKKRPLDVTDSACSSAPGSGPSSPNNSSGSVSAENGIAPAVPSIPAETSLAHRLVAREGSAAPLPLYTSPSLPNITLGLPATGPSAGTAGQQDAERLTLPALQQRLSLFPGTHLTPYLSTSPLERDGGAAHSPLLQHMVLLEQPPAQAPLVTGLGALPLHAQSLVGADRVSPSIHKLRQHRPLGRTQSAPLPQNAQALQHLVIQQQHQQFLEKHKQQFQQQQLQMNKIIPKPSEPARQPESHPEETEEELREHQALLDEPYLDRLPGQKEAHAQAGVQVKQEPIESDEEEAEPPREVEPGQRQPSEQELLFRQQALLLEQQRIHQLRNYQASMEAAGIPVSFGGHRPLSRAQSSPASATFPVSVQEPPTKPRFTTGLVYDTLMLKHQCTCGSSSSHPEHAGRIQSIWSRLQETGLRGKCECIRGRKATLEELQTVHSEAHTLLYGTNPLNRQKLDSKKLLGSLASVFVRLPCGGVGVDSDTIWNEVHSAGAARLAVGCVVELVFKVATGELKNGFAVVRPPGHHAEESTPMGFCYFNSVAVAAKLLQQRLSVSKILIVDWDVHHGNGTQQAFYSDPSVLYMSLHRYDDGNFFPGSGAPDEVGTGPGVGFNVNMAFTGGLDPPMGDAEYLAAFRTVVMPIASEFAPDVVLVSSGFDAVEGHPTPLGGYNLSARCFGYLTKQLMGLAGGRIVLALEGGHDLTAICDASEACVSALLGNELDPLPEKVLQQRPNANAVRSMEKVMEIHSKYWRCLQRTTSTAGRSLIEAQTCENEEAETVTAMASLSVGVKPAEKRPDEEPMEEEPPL
HDAC4-FLAG deletion mutant, amino-terminal region (aa 1-289) (human (by the printed RefSeq NM_006037)): residues 1-289 of P56524
UniProt Q14814: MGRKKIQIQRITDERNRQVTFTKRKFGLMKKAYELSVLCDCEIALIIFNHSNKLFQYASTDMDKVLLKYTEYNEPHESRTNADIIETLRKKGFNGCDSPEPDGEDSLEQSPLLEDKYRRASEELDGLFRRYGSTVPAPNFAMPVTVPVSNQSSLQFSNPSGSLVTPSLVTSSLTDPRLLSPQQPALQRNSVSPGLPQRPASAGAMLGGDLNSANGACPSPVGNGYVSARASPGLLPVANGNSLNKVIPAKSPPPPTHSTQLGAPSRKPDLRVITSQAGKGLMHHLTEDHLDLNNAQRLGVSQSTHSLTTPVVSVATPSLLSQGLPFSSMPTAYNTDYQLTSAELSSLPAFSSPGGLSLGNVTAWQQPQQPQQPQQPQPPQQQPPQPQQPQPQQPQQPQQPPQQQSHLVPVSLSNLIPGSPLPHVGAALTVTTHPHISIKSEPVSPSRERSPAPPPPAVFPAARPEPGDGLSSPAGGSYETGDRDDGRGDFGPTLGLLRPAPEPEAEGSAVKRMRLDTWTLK
GST-MEF2D (1-190): residues 1-190 of Q14814
UniProt Q92769: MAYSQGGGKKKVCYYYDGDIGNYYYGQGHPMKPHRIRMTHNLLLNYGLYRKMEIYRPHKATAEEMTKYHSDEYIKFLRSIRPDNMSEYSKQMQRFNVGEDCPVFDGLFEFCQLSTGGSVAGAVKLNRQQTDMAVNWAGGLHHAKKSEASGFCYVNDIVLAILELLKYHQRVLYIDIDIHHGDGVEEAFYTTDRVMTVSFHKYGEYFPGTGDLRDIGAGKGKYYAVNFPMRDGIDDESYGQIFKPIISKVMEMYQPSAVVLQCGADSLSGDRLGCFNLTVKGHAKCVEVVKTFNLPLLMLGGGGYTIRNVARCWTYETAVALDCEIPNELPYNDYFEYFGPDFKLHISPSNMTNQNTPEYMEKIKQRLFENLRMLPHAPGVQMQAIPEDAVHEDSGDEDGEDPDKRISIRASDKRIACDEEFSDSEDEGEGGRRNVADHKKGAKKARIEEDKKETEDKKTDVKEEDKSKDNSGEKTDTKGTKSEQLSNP
UniProt O15379: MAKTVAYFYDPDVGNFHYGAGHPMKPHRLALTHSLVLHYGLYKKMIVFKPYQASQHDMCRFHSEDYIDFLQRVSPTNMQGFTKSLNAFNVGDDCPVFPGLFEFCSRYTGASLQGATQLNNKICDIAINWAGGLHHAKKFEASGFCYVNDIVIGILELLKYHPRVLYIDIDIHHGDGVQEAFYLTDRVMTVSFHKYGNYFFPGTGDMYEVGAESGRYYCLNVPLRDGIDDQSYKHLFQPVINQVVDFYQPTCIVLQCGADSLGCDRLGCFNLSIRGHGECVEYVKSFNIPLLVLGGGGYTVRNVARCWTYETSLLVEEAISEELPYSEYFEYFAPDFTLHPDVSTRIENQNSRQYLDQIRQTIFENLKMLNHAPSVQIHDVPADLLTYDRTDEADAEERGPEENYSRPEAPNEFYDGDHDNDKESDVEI
UniProt Q5VTR2: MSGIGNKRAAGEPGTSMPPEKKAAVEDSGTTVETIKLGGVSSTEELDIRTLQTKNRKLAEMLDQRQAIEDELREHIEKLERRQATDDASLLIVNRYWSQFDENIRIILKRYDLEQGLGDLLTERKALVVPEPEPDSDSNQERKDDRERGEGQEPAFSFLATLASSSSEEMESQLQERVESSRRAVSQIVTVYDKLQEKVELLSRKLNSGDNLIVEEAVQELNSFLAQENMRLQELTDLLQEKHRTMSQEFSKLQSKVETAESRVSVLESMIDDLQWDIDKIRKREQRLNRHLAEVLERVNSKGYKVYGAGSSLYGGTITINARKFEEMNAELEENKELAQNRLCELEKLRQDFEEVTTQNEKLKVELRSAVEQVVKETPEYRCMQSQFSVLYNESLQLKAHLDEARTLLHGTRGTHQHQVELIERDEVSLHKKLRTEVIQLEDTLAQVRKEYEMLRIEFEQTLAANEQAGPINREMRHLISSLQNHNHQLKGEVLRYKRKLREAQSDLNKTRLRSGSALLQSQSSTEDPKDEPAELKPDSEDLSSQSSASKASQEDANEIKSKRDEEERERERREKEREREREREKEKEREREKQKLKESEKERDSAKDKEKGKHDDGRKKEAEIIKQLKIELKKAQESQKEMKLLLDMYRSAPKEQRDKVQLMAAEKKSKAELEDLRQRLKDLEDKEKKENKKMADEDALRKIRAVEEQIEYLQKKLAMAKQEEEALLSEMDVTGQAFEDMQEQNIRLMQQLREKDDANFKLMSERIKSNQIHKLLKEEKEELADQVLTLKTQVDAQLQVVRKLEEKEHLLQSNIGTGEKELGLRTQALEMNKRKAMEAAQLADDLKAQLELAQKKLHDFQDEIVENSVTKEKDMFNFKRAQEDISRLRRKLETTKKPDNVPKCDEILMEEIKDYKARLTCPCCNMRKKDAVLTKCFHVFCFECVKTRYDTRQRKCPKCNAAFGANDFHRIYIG

These are yes or no findings as the source states them, for the method shown. For some assays here: Binding seen in cells or lysates may run through a third protein. Some binding calls cover weakened binding; strength is not graded here.

For HDAC2-GFP (from UniProt Q92769 1-488), the binding result in experiment [1] is on record as “binds”.
Take “HDAC3 (endogenous, SK-LMS-1) (from UniProt O15379 1-428)”: the binding entry in experiment [2] was “binds”.
As to “HDAC2 (endogenous, SK-LMS-1) (from UniProt Q92769 1-488)”, in experiment [2], the binding result was “binds”.
Take HDAC2-HA (from UniProt Q92769 1-488): the binding result in experiment [3] was “binds”.
Regarding “HDAC4 (endogenous, SK-LMS-1) (from UniProt P56524-1 1-1084)”, the binding entry in experiment [4] and in experiment [5] was “binds” each time.
As for “RNF20, the E3 ligase for H2BK120ub (endogenous, SK-LMS-1) (from UniProt Q5VTR2 1-975)”, in experiment [2], the binding entry is reported as “binds”.
For the substance MEF2D-GFP (from UniProt Q14814 1-521), the binding entry in experiment [1] was “binds”.

The record behind these values is PMC11317144.
